What all share (experiment): co-IP
Assay [1] addresses T1, Kindlin-2 (full-length, overexpressed) (UniProt Q8CIB5).
T1 sequence: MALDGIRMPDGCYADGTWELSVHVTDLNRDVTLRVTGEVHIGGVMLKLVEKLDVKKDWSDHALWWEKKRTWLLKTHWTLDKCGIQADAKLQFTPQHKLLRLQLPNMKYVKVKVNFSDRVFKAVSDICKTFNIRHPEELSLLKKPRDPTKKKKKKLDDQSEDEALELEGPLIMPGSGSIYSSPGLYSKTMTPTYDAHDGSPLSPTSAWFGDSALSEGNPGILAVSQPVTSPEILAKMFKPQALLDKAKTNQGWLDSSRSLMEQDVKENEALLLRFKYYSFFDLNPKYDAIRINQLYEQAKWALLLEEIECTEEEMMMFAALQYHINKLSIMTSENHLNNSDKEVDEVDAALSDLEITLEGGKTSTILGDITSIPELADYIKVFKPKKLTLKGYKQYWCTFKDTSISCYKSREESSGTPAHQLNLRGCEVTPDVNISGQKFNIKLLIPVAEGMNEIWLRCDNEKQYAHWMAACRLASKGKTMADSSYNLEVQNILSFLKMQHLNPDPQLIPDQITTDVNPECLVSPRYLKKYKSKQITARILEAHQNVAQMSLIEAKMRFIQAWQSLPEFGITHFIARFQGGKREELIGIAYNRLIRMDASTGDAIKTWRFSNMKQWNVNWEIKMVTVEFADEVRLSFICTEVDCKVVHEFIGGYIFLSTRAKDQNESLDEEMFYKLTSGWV

By UniProt entry, the sequences of proteins in these tests, tags left out.
UniProt P42227: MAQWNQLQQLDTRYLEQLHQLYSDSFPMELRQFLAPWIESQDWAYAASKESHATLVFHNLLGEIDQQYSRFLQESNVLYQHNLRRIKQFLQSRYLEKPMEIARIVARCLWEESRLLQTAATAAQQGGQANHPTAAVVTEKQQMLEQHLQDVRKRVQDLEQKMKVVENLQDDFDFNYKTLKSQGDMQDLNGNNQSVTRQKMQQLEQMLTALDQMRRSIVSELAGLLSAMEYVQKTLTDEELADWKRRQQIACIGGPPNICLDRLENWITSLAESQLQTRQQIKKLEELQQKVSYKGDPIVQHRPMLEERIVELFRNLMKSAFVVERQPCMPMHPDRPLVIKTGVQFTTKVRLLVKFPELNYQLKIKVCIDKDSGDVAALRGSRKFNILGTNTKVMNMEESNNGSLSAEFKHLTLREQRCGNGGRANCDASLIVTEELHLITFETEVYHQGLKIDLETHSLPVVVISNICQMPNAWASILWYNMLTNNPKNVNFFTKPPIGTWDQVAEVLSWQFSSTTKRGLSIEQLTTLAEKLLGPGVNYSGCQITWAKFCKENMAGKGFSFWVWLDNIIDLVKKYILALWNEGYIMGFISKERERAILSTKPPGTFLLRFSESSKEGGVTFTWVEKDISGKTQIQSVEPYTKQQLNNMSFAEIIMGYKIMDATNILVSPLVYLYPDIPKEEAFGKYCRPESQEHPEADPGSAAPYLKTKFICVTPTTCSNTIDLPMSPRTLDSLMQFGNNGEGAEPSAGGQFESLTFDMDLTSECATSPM

The target of assay [2] is T2, Kindlin-2 (endogenous) (mouse (endogenous in primary articular chondrocytes)) (UniProt Q8CIB5).
T2 sequence: T1 sequence

Assay [3] deals with Flag-Stat3 (UniProt P42227).

No constants are given. Whether binding was seen depends on the method and setting. In cells and extracts the contact can be indirect. Some results given as binding are weak or reduced against the parent protein; the word gives no strength.

As to Flag-Stat3 (from UniProt P42227 1-770), the binding result in assay [1] is on record as “binds”. For “Stat3 (endogenous) (from UniProt P42227 1-770)”, in assay [2], the binding entry is recorded as “binds”.

B1: Kindlin-2 (full-length, overexpressed) (protein, UniProt Q8CIB5 1-680)
chain: T1 sequence
B1: the binding result in assay [3] is given as “binds”.
